Results on 4 molecules are retold here after patent US20150252099A1 (TRELLIS BIOSCIENCE, published 2015).

The chains behind the UniProt entries cited, without tags or fusion partners. Residues count along the entry.
UniProt P06473, residues 32-906: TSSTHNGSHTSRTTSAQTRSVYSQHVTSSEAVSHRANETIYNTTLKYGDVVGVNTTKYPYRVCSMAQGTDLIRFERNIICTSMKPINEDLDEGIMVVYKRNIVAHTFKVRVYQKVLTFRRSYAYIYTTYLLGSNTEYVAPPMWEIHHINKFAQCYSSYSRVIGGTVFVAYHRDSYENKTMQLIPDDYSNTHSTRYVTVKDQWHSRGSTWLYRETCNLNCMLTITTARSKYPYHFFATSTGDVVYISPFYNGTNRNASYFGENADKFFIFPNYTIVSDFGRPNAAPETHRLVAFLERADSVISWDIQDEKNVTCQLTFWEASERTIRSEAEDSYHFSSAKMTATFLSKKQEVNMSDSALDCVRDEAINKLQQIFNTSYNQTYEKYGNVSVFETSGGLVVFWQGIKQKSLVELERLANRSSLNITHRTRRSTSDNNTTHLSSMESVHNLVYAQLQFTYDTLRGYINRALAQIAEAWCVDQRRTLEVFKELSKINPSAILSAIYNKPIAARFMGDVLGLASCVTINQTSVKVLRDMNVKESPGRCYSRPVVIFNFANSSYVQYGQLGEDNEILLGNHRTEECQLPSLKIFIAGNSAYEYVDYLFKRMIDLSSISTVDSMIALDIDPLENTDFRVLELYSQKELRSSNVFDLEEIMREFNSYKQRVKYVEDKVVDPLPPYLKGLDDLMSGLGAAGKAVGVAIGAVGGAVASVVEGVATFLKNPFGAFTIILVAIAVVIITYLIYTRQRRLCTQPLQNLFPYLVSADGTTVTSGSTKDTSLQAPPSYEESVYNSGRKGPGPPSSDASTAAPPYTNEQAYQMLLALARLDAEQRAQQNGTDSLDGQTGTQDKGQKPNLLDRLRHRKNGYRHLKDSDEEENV

Test [1] addresses CMV gB protein (strain AD169), purified (human cytomegalovirus (CMV), strain AD169) (UniProt P06473). Description: screening of cloned mAbs on recombinant gB.
The target is the same in test [2]. In words: ELISA on purified gB protein. (In general: ELISA stands for enzyme-linked immunosorbent assay.)
The target in test [3] is AD-2 peptide … (human cytomegalovirus (CMV)). Description: ELISA on the AD-2 peptide.
The target is the same in test [4]. Description: screening of cloned mAbs on the AD-2 peptide.
Test [5] addresses CMV gB protein (strain AD169), purified (human cytomegalovirus (CMV), strain AD169) (UniProt P06473). In words: told with the gB binding kinetics (ForteBio biosensor); data not shown.

Changes are numbered by the printed parent chain. These are yes or no findings as the source states them, for the method shown. Some entries that bind do so weakly or less than the wild type.

B1: mAb 19B10 (antibody, V domains shown)
VH: QVQLQQSGPGLVKPSQTLSLTCTVSGGSISSGDFCWNWIRQPPGKGLEWIGYICYTGDTYYNPPLNSRVTISVDRSRNQISLRLSSVTAADTAVYYCAREDRRQLHSRPYFYYGLDVWGRGTKVTVSS
VL: EIVMTQSPLSLPVTPGETASISCRSSQSLLHSNGHNYLDWYLQKPGQSPHLLIYLGSIRASGVPDRFSGSGTGTDFTLKISRVEAEDVGVYYCMQALQTPNTFGQGTKLEIRR
notes: Human mAb
Take B1: the binding result in test [1] and in test [2] was “binds” in each case.

B2: mAb 4A2 (antibody, V domains shown)
VH: QVLLEESGGGVVQPGRSLRLSCAGSGFTFNRHGIHWVRQAPGKGLEWVTVISSDGANQQYAESVKGRFIISRDNSKNTVYLEMNSLRNDDTGVYFCARDGRCEGERCYSGVTDFWGQGTLV
VL: EIVLTQSPATLSLSPGERATLSCRASQNIGGYLAWFQQKAGQAPRLLIYDASIRATGIPARFSGSGSGTDFTLTISSLEPEDFAVYYCQQRNSWPPLTFG
notes: Human mAb
Consider B2, for which the binding entry in test [1], in test [3], in test [4] and in test [2] was “binds” throughout.

B3: MAB316 (antibody, V domains shown)
VH: QVQLVQSGGGVVQPGRSLTLSCAASGFTFSGFSLHWVRQAPGKGLQWVAVISFDGNHKHFADSLKGRFTISRDNSKNTLYLQINDLRGEDTAVYYCARDGRAVDGFSGILDFWGQGTLVSVSS
VL: EIVMTQSPATLSLSPGERATLSCRASQSVGRYLTWFQQKPGQAPRLLIYDASERATGVPARFSGSGSGTDFTLTISSLEPEDFAVYYCQQRSNWPPLTFGGGTKVEIK
Consider B3, for which, in test [5], the binding entry is “binds”.

B4: MAB338 (antibody, V domains shown)
VH: QVQLVESGGGVVQPGRSLRLSCSGSGFTFSDYNLHWVRQAPGKGLEWVAVISIDGTNKHHADSVKGRFTISRDNSKNTVNLEMSRLKAEDTAVYYCVRDGRSIGGYSGIFDPWGQGTLVTVSS
VL: B3 VL with M4L, G30D, T34A, F36Y, E53Q, V58I, T74A, F83V, V105I
Regarding B4, in test [5], the binding result is reported as “binds”.
